Measurements: PMC10163088

Legend:
[1] = target: GST-Dal80 N-terminal part comprising the zinc finger domain (S. cerevisiae); experiment: pull-down; GST fusions of repressors (full-length or length variants) immobilised on GSH sepharose, incubated with bacterial total protein extracts containing HA-tagged Sin3, Cyc8 or Tup1 (or Tup1 length variants); elution with free GSH, anti-HA blot (Figs. 1, 3, 4, 5); only the target purified
[2] = target: GST-Yox1 length variant aa 235-280 (S. cerevisiae); experiment: as above

binding [1]: no binding
binding [2]: binds
B1: HA3-Cyc8 (aa 1-398 with 10 TPR motifs; pFK77) (domain or fragment, UniProt P14922 1-398)
chain: MNPGGEQTIMEQPAQQQQQQQQQQQQQQQQAAVPQQPLDPLTQSTAETWLSIASLAETLGDGDRAAMAYDATLQFNPSSAKALTSLAHLYRSRDMFQRAAELYERALLVNPELSDVWATLGHCYLMLDDLQRAYNAYQQALYHLSNPNVPKLWHGIGILYDRYGSLDYAEEAFAKVLELDPHFEKANEIYFRLGIIYKHQGKWSQALECFRYILPQPPAPLQEWDIWFQLGSVLESMGEWQGAKEAYEHVLAQNQHHAKVLQQLGCLYGMSNVQFYDPQKALDYLLKSLEADPSDATTWYHLGRVHMIRTDYTAAYDAFQQAVNRDSRNPIFWCSIGVLYYQISQYRDALDAYTRAIRLNPYISEVWYDLGTLYETCNNQLSDALDAYKQAARLDVNN

These are yes or no findings as the source states them, for the method shown. In cells and extracts the contact can be indirect. For some assays here: A result given as binding can be weak or reduced; the word gives no strength.
